Test results reported in PubChem BioAssay AID1439 (NMMLSC, 2008).
Hit rate of the full screen: of about 220,000 compounds, about 770 (0.35%) were called active. This list was built around the results that the source calls inconclusive (neither active nor inactive); the mix of calls is not that of the screen. Rule as the data show it: active = binding response below about 49% or above about 150%; inconclusive = no clear call, values can overlap the other calls; inactive = in between.

By UniProt entry, the sequences of proteins in these tests, tags left out.
UniProt P09471, whole entry, looked up: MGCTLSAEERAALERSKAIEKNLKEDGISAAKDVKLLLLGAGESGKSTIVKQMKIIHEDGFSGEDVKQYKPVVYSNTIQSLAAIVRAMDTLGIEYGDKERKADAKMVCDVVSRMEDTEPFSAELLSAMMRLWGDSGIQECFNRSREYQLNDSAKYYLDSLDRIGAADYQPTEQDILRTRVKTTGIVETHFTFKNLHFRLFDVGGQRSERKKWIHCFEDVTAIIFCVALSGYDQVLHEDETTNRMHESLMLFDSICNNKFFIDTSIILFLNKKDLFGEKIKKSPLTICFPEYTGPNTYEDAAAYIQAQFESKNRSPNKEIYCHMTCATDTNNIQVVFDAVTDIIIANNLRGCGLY

These molecules were tested against Guanine nucleotide-binding protein G(o) subunit alpha (Homo sapiens) (UniProt P09471) (assay: RGS7-Galphao binding modulators, primary screen, biochemical, multiplexed bead flow cytometry (AID 1439;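 also: fluorescent Galphao held in activated GDP-AlF4 state binding bead-coupled RGS7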)). Conditions: at 10 µM, actives lie on both sides.

Which binding response (% of control) does the source give for `CCCCCCN(C(=O)CCCCCN1C(=O)NC(c2ccc([N+](=O)[O-])cc2)C(C(=O)OCc2ccccc2)=C1C)C(C(=O)NCCCC)c1ccc(OCC(=O)OC)c(C(=O)OC)c1` (stereo unspecified) here?
Its binding response (% of control) is inconclusive: 95.9%.

Which binding response (% of control) does the source give for `Clc1nc(N2CCOCC2)ncc1Br` here?
The binding response (% of control) was inconclusive: 105%.

`Cc1ccc(C(=O)NC2CCN(CC(=O)NCc3cccs3)CC2)cc1` was tested. Which binding response (% of control) did it give?
Its binding response (% of control) is inconclusive: 100%.

How did the binding response (% of control) turn out when `Cc1c(O)ccc2c(O)c(NC(=O)c3ccc4c(c3)CCC(C)(C)O4)c(=O)oc12` was run?
The binding response (% of control) was inconclusive: 695%.

Which binding response (% of control) does the source give for `C/C(=N/NC(=O)c1ccccn1)c1ccc(O)cc1` here?
Its binding response (% of control) is inconclusive: -562%.

`COc1cc(-c2nc(CN3CCCCC3CCNC(C)=O)c(C)o2)ccc1F` (stereo unspecified) was tested. Which binding response (% of control) did it give?
The binding response (% of control) was inconclusive: 118%.

With `C=CCOc1ccc(Br)cc1CNC(C)(C)CO` as the molecule, how does the binding response (% of control) read?
The binding response (% of control) was inconclusive: 116%.

Which binding response (% of control) does the source give for `C/C(=N\NC(=O)Cn1nc(C)c([N+](=O)[O-])c1C)c1ccco1` here?
The binding response (% of control) was inconclusive: 100%.

For `COc1ccccc1N1CCN(/N=C/C=C/c2ccccc2[N+](=O)[O-])CC1`, which binding response (% of control) is on record?
Its binding response (% of control) is inconclusive: 87.6%.

For `O=C(COc1ccc([N+](=O)[O-])cc1)NNC(=O)c1cccs1`, which binding response (% of control) is on record?
Its binding response (% of control) is inconclusive: 107%.

For `Cn1c(=O)c([N+](=O)[O-])c(N2CCN(Cc3ccc4c(c3)OCO4)CC2)c2ccccc21`, which binding response (% of control) is on record?
The binding response (% of control) was inconclusive: 71.2%.

`CCC(C)NC(=O)Cc1c(OC)ccc2cc(Br)ccc12` (stereo unspecified) was tested. Which binding response (% of control) did it give?
Its binding response (% of control) is inconclusive: 89.2%.

For `O=C(Cc1nnc(NC(=O)Nc2ccccc2F)s1)NCc1ccccc1`, which binding response (% of control) is on record?
The binding response (% of control) was inconclusive: 87.1%.

With `NC(=O)c1c(NC(=O)c2ccccc2)sc2c1CCc1ccccc1-2` as the molecule, how does the binding response (% of control) read?
The binding response (% of control) was inactive: 100%.

How did the binding response (% of control) turn out when `CCC1=C(OC(=O)N(CC)CC)N2C(=O)OC(=NCCOC)[C@]2(Cc2ccccc2)[C@H]2C1=CC[C@H]1C(=O)NC(=O)[C@H]12` was run?
The binding response (% of control) was inconclusive: 108%.

`O=c1[nH]nc(SCc2nnc(-c3cccc(Cl)c3)o2)n1C1CCCCC1` was tested. Which binding response (% of control) did it give?
The binding response (% of control) was inconclusive: 102%.

With `CCCCNC(=O)C1CCCN1S(=O)(=O)c1cccc2nsnc12` (stereo unspecified) as the molecule, how does the binding response (% of control) read?
The binding response (% of control) was inconclusive: 110%.

`O=c1c(C(c2ccc(Br)cc2)c2c(O)nc3n(c2=O)CCCS3)c(O)nc2n1CCCS2` was tested. Which binding response (% of control) did it give?
Its binding response (% of control) is inconclusive: 399%.

With `CCOC(=O)c1c(NC(=S)NCc2ccccc2)sc2c1CCN(C(=O)OCC)C2` as the molecule, how does the binding response (% of control) read?
Its binding response (% of control) is inconclusive: 90.9%.

Which binding response (% of control) does the source give for `CCCSc1cc(=O)n(-c2ccccc2)nc1C(=O)O` here?
Its binding response (% of control) is inconclusive: 101%.

How did the binding response (% of control) turn out when `O=C1NC(=S)S/C1=C\c1coc2ccc(O)cc2c1=O` was run?
The binding response (% of control) was inconclusive: 3.28%.

For `Cc1cc2cc(CNC(=O)Nc3ccccc3)ccc2[nH]1`, which binding response (% of control) is on record?
Its binding response (% of control) is inactive: 104%.

For `CCOC(=O)c1cnc(-n2nc(C)cc2C)nc1Nc1ccc(O)cc1`, which binding response (% of control) is on record?
The binding response (% of control) was inconclusive: 144%.

How did the binding response (% of control) turn out when `C=CCN(c1ccc(Cl)cc1)S(=O)(=O)c1cccc(C(=O)O)c1` was run?
The binding response (% of control) was inconclusive: 104%.

Which binding response (% of control) does the source give for `O=C(NCCCN1CCCC1=O)[C@H](CSCc1ccccc1)N1Cc2ccccc2C1=O` here?
The binding response (% of control) was inconclusive: 107%.

For `O=C(Nc1ccc(F)cc1F)c1c(C(F)(F)F)ccnc1Oc1ccc(Cl)cc1`, which binding response (% of control) is on record?
The binding response (% of control) was inconclusive: 84.6%.

Which binding response (% of control) does the source give for `O=C(Nc1nccs1)c1ccc([N+](=O)[O-])cc1` here?
The binding response (% of control) was inconclusive: 76.2%.

Which binding response (% of control) does the source give for `S=C(Nc1ccc(Br)cc1Cl)NN1CCOCC1` here?
Its binding response (% of control) is inconclusive: 85.5%.

With `CCN1CCc2nc(NC(=O)c3ccc(S(=O)(=O)N(C)C)cc3)sc2C1` as the molecule, how does the binding response (% of control) read?
The binding response (% of control) was inconclusive: 93.2%.

How did the binding response (% of control) turn out when `c1cncc(CNc2nc(N3CCOCC3)nc(N3CCOCC3)n2)c1` was run?
The binding response (% of control) was inactive: 131%.

With `COc1ccc(-c2ocnc2C(=O)NCc2nn(-c3ccccc3)nc2C)cc1` as the molecule, how does the binding response (% of control) read?
Its binding response (% of control) is inconclusive: 62.5%.

`CCOc1cc2c(cc1/C=C1/NC(=O)N(CC(=O)OC)C1=O)OCO2` was tested. Which binding response (% of control) did it give?
Its binding response (% of control) is inactive: 100%.

Which binding response (% of control) does the source give for `O=C(CSc1nnc(-c2ccccc2)o1)NC1CCS(=O)(=O)C1` (stereo unspecified) here?
Its binding response (% of control) is inactive: 98.7%.

How did the binding response (% of control) turn out when `CCN(CC)Cc1ccc(NC(=O)c2sc3cc(Cl)ccc3c2Cl)cc1` was run?
The binding response (% of control) was inconclusive: 675%.

For `COc1cccc(-c2nnc(NC(=O)c3ccccc3Br)o2)c1`, which binding response (% of control) is on record?
Its binding response (% of control) is inconclusive: 68.4%.

How did the binding response (% of control) turn out when `COc1cccc(/C=N/NC(=O)c2ccoc2C)c1O` was run?
Its binding response (% of control) is inconclusive: 87.3%.

How did the binding response (% of control) turn out when `Cc1ccc2nc(C)c3c(c2c1)N(c1ccc(F)cc1)CC3` was run?
Its binding response (% of control) is inconclusive: 41.4%.

For `O=C(CC1C(=O)NCCN1C(=O)Nc1ccc(F)cc1)Nc1cc(Cl)ccc1Cl` (stereo unspecified), which binding response (% of control) is on record?
The binding response (% of control) was inconclusive: 390%.

How did the binding response (% of control) turn out when `O=C(COc1ncnc2ccccc12)NCC1CCCO1` (stereo unspecified) was run?
Its binding response (% of control) is inconclusive: 92.5%.

How did the binding response (% of control) turn out when `COc1ccc2[nH]c(=S)cc(C)c2c1` was run?
The binding response (% of control) was inconclusive: 106%.

`c1ccc(C2CCC(N3CCNCC3)CC2)cc1` (stereo unspecified) was tested. Which binding response (% of control) did it give?
The binding response (% of control) was inactive: 122%.

Which binding response (% of control) does the source give for `S=C1SCN(CC2CC2)CN1CC1CC1` here?
Its binding response (% of control) is inconclusive: 87.3%.

Which binding response (% of control) does the source give for `NC(=O)NC(=O)COC(=O)CC12CC3CC(CC(C3)C1)C2` here?
Its binding response (% of control) is inconclusive: 98.8%.

How did the binding response (% of control) turn out when `C[C@H]1[C@H](C)CC[C@]2(C)CC[C@]3(C)C(=CC[C@@H]4[C@@]5(C)CC[C@@H](O)[C@](C)(C(=O)O)[C@@H]5CC[C@]43C)[C@H]12` was run?
Its binding response (% of control) is inconclusive: 101%.

With `CCCCOP(=O)(c1ccc(N(C)C)cc1)C(O)c1ccc(OC)c(OC)c1` (stereo unspecified) as the molecule, how does the binding response (% of control) read?
The binding response (% of control) was inconclusive: 113%.

How did the binding response (% of control) turn out when `CCN(CC(=O)Nc1ccc2c(c1)OCCO2)c1ccc(S(=O)(=O)N2CCOCC2)cn1` was run?
Its binding response (% of control) is inactive: 84%.

For `Cc1[nH]c(=O)c(C#N)c(C)c1Cl`, which binding response (% of control) is on record?
Its binding response (% of control) is inconclusive: 82.7%.

With `CC(/C=C/c1ccco1)=N/NC(=O)c1ccc(C)nc1` as the molecule, how does the binding response (% of control) read?
The binding response (% of control) was inconclusive: 56.4%.

Which binding response (% of control) does the source give for `CCN(CC)c1ccc(/C=N/N2CCN(Cc3ccc(Cl)cc3)CC2)c(O)c1` here?
Its binding response (% of control) is inconclusive: 102%.

`O=C(CS(=O)CC(=O)N(CC(=O)NC1CCCC1)c1ccc2c(c1)OCCO2)Nc1ccc(F)cc1` (stereo unspecified) was tested. Which binding response (% of control) did it give?
The binding response (% of control) was inactive: 91.7%.

Which binding response (% of control) does the source give for `COc1ccc2[nH]c(=O)c(CNc3cc(C)ccc3C)cc2c1` here?
The binding response (% of control) was inconclusive: 83.2%.

For `COc1ccccc1N1CCN(CC(=O)N(CC(C)C)c2c(N)n(CC(C)C)c(=O)[nH]c2=O)CC1`, which binding response (% of control) is on record?
Its binding response (% of control) is inconclusive: 95.7%.

Which binding response (% of control) does the source give for `COC(=O)c1cccc(NC(=O)Nc2ccc(Cl)cc2Cl)c1` here?
Its binding response (% of control) is inconclusive: 163%.

For `Nc1nc(Nc2cccc(F)c2)nc(NCCO)c1[N+](=O)[O-]`, which binding response (% of control) is on record?
The binding response (% of control) was inconclusive: 90.6%.

Which binding response (% of control) does the source give for `Cn1cc(C(=O)c2cccc(Cl)c2Cl)cc1C#N` here?
The binding response (% of control) was inconclusive: 79.1%.

With `O=C(O)C/C(=C\c1ccc(N2CCOCC2)c([N+](=O)[O-])c1)c1nc2ccccc2s1` as the molecule, how does the binding response (% of control) read?
The binding response (% of control) was inconclusive: 128%.
